Experimental data: article PMC7862700
The other results are listed elsewhere or left out. Construct or isoform of the protein are uncertain.

Target: T1, ETS1 (UniProt P14921)
T1 sequence: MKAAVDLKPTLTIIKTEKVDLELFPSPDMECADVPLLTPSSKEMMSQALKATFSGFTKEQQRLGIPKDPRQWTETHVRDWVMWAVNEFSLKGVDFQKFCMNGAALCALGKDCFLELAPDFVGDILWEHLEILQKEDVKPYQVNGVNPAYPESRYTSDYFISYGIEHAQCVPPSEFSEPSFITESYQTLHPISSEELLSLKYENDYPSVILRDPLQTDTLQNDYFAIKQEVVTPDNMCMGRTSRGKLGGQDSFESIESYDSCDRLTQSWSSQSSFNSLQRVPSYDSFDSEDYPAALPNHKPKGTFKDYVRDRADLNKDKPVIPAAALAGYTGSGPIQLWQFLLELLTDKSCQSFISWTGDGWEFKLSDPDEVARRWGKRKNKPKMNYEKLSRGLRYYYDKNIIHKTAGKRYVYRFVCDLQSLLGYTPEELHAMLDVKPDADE
Assay: DAPPL (digital affinity profiling via proximity ligation, sequencing)
Details: 10 mM Tris-HCl pH 7.5, 50 mM NaCl, 1 mM DTT, 4% glycerol, room temperature, 30 min; GST-TFs on glutathione beads, 16-mer random dsDNA library, 0.1% …; high values mean tight binding; double strand, one strand shown; scale: fold enrichment (6-mer frequency, TF over GST control)

**Q.** Which binding signal does the source give for AAACCT here?
**A.** 1.08

**Q.** How did the binding signal turn out when ATAGAC was run?
**A.** 0.989

**Q.** With CACTGC as the sequence, how does the binding signal read?
**A.** 1.39

**Q.** For TACATA, which binding signal is on record?
**A.** 1.25

**Q.** For GATGTA, which binding signal is on record?
**A.** 1.4

**Q.** TGTTGA was tested. Which binding signal did it give?
**A.** 1.02

**Q.** With AGCCTT as the sequence, how does the binding signal read?
**A.** 1.19

**Q.** How did the binding signal turn out when ACGGCA was run?
**A.** 1.12

**Q.** How did the binding signal turn out when AATCCG was run?
**A.** 1.5

**Q.** AGTGCA was tested. Which binding signal did it give?
**A.** 0.957

**Q.** CTCCGA was tested. Which binding signal did it give?
**A.** 1.34

**Q.** TGTCCT was tested. Which binding signal did it give?
**A.** 1.52

**Q.** How did the binding signal turn out when CGACAA was run?
**A.** 1.22

**Q.** Which binding signal does the source give for ATACGC here?
**A.** 1.06

**Q.** How did the binding signal turn out when GTCTCT was run?
**A.** 1.36

**Q.** Which binding signal does the source give for GGTTCA here?
**A.** 1.08

**Q.** With GTTTTT as the sequence, how does the binding signal read?
**A.** 1.35

**Q.** How did the binding signal turn out when TATTTT was run?
**A.** 1.38

**Q.** CAAGCA was tested. Which binding signal did it give?
**A.** 1.15

**Q.** How did the binding signal turn out when ATGTAG was run?
**A.** 1.09

**Q.** How did the binding signal turn out when ACTCTG was run?
**A.** 1.29

**Q.** With AGCACA as the sequence, how does the binding signal read?
**A.** 1.08

**Q.** How did the binding signal turn out when TACAAA was run?
**A.** 1.21

**Q.** With GATGCA as the sequence, how does the binding signal read?
**A.** 1.12

**Q.** With AACCGG as the sequence, how does the binding signal read?
**A.** 1.41

**Q.** For TCCCAG, which binding signal is on record?
**A.** 1.06

**Q.** For CTTATT, which binding signal is on record?
**A.** 1.56

**Q.** Which binding signal does the source give for GTTATC here?
**A.** 1.09

**Q.** Which binding signal does the source give for CATGGT here?
**A.** 1.19

**Q.** Which binding signal does the source give for TTGGCA here?
**A.** 1.22

**Q.** How did the binding signal turn out when TAAATC was run?
**A.** 1.24

**Q.** TTGTAG was tested. Which binding signal did it give?
**A.** 1.2

**Q.** For ACACGG, which binding signal is on record?
**A.** 1.04

**Q.** Which binding signal does the source give for AATCTA here?
**A.** 1.15

**Q.** Which binding signal does the source give for ATTTTG here?
**A.** 1.3

**Q.** Which binding signal does the source give for TGATAC here?
**A.** 1.09

**Q.** For CATGCC, which binding signal is on record?
**A.** 1.12

**Q.** ACCTCC was tested. Which binding signal did it give?
**A.** 1.34

**Q.** How did the binding signal turn out when CACAAC was run?
**A.** 1.21
